The list shows a part of the results.
Tests used:
Assay in all cases: log2 fold change, soluble protein after heating vs DMSO (PISA); higher = thermal stabilisation; K562 lysate, 10 uM; active = over 0.2 and 3.5 SD of the protein, either way, in both replicates (recomputed)
lapatinib = compound: CS(=O)(=O)CCNCc1ccc(-c2ccc3ncnc(Nc4ccc(OCc5cccc(F)c5)c(Cl)c4)c3c2)o1 [lapatinib]
Method in brief: (§1)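 Pellets of K562 cells were dounce-homogenised in PBS pH 7.4 with 1 mM MgCl2, and the crude extract was held at 1 mg/mL protein for a 30 min treatment with 10 μM compound. Aliquots were heated for 3 min over 48°C-58°C and pooled before NP-40 was added to 0.5% at 4°C. The supernatant from 21,000xg for 90 min was quantified by TMTpro 16plex LC-MS/MS with channel sums equalised. Values are reported from duplicates as log-two fold change in thermal stability relative to solvent controls.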

Amino acid sequences for entries named in this document (tags omitted). A change or cut given only in a name is not applied to a line headed by its entry.
UniProt Q8TF01: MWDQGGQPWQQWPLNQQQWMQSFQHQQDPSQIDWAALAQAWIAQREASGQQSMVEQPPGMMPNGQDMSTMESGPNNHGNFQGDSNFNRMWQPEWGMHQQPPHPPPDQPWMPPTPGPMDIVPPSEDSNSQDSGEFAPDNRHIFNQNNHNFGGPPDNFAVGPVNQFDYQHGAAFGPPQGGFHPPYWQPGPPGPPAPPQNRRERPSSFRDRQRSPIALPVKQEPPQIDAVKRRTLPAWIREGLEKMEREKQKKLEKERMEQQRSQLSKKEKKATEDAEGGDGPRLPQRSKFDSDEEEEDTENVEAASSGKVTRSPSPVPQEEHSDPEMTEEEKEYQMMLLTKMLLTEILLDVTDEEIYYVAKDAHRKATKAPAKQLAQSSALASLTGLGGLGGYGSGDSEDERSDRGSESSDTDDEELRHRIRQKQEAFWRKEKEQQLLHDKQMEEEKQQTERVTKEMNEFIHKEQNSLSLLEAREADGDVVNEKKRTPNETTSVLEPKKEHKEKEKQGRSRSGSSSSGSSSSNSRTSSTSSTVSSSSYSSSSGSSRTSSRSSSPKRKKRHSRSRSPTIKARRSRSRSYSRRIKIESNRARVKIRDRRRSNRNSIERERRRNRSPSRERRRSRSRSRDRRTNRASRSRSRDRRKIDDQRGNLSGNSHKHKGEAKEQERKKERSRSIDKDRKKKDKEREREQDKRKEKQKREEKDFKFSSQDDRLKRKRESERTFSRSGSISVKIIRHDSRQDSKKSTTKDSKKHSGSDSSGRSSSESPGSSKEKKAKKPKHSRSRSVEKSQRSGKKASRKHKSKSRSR
UniProt P0CAP2, whole entry, looked up: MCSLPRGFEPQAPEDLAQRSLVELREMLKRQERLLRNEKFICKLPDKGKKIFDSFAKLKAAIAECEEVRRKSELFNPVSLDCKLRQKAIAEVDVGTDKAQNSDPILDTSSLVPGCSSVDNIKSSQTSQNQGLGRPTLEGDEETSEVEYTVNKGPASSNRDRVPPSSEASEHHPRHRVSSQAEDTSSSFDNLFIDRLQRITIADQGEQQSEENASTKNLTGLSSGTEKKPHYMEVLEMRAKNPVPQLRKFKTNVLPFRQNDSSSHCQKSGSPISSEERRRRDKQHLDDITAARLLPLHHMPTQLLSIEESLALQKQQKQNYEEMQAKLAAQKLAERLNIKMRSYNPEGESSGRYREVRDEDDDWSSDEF
UniProt Q9Y2S7: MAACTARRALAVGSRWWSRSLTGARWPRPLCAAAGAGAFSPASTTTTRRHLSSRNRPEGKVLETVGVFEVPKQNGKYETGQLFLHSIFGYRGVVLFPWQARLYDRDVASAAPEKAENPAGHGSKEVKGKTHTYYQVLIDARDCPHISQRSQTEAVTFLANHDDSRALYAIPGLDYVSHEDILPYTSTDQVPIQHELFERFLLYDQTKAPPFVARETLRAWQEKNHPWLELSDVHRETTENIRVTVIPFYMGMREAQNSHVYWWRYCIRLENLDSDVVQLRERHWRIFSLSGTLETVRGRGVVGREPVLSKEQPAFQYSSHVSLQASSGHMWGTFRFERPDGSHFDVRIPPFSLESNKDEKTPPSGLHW
UniProt O00411: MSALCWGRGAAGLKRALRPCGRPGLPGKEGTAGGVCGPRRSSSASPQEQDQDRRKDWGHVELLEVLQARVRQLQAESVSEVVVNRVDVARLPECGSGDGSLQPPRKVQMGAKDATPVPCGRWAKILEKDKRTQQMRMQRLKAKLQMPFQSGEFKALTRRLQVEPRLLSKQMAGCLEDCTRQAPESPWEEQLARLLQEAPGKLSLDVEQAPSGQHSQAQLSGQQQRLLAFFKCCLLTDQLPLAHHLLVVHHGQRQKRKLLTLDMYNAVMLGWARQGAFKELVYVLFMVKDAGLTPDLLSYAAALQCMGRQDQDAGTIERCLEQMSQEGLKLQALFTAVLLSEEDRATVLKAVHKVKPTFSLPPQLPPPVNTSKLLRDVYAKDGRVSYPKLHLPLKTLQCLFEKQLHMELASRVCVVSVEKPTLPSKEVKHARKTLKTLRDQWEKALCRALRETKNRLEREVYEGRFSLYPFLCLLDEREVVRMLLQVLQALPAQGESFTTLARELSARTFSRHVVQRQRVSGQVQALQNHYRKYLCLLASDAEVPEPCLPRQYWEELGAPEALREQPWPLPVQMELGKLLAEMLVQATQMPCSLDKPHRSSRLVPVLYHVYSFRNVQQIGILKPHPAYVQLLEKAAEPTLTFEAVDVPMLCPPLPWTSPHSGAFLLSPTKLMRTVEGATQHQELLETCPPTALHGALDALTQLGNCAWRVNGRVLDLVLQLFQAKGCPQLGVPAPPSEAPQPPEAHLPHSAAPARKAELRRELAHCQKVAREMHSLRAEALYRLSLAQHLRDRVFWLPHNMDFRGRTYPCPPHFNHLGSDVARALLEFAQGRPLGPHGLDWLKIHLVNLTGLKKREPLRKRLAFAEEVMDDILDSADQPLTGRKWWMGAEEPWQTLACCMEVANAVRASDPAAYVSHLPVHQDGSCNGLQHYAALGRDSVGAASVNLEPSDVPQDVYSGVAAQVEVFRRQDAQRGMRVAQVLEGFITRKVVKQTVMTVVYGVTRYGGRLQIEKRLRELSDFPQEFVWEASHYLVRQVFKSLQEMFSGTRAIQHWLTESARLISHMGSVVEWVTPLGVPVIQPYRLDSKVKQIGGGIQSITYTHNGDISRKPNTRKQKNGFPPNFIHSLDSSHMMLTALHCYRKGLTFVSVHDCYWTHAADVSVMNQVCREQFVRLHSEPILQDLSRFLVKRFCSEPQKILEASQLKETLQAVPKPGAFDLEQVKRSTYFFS
UniProt Q8WZA1: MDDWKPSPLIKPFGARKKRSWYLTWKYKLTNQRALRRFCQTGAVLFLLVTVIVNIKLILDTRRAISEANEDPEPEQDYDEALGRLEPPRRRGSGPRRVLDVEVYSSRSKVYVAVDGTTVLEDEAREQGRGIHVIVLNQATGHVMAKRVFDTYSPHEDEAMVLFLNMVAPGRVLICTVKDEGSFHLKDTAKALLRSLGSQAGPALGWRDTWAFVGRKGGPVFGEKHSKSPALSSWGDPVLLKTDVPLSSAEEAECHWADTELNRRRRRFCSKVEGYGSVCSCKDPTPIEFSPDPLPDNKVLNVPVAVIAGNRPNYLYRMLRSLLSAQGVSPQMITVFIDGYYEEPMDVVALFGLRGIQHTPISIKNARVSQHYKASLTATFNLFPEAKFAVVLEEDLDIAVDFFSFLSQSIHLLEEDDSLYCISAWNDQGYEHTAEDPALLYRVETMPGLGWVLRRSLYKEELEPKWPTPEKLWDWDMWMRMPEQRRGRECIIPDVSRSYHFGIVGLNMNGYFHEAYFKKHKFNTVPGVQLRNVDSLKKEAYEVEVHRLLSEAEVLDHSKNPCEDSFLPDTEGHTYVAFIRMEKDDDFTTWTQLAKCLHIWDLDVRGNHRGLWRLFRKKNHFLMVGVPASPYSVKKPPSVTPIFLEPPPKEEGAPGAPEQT
UniProt P00491: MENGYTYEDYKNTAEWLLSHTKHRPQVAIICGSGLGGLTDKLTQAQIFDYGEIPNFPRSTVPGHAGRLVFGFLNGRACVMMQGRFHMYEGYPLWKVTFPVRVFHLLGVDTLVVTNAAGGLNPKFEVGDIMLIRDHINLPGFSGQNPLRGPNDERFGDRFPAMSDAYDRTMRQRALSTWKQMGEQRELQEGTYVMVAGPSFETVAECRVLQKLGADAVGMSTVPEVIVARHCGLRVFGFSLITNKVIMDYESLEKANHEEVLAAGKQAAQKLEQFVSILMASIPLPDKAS
UniProt Q9NR33: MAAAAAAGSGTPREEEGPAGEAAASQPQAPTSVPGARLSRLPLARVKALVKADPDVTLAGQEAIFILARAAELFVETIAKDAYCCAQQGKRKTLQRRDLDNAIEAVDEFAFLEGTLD
UniProt Q8NBL1: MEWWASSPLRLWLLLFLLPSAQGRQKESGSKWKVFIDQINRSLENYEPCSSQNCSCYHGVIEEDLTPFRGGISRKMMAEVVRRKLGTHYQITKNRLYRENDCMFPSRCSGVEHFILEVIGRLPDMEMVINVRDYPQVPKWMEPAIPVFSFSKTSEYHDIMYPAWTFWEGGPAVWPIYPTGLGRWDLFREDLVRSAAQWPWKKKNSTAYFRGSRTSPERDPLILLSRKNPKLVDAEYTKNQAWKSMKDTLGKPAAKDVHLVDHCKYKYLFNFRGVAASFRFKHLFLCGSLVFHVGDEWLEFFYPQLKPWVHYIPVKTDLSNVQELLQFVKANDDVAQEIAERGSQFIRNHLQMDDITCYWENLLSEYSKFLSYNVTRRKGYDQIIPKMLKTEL
UniProt O15160, whole entry, looked up: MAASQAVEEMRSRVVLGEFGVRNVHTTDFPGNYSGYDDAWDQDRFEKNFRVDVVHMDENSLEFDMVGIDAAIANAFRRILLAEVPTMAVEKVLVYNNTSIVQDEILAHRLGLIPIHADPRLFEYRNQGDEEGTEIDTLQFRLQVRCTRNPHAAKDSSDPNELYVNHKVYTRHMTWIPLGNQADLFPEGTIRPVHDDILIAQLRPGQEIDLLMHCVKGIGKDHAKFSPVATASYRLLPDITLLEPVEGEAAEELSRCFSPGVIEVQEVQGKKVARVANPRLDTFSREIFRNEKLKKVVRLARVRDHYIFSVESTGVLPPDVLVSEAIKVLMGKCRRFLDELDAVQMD
UniProt Q68D20: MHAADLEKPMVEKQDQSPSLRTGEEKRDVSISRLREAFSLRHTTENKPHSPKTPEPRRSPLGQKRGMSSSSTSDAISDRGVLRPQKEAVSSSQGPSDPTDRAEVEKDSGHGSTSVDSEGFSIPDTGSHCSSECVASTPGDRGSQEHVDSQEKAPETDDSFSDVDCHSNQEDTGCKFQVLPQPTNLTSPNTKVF
UniProt Q9NRX1: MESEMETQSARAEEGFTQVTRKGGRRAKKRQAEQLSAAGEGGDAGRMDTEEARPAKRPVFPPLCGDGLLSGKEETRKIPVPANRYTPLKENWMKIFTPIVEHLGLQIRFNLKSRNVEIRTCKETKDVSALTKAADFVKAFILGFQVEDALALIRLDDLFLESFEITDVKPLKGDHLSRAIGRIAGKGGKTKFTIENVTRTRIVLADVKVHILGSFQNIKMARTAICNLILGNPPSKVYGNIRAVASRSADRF
UniProt Q8N490: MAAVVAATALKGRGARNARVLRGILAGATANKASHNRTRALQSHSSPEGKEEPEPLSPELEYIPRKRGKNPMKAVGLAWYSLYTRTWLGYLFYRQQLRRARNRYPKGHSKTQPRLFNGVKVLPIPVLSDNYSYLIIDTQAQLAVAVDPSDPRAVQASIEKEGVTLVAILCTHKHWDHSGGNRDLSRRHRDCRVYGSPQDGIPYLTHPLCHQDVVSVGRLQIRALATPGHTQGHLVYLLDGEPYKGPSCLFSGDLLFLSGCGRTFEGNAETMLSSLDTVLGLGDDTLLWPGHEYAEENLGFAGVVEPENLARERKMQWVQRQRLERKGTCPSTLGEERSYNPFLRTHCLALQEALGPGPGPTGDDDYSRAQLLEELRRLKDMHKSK
UniProt P0CG38, whole entry, looked up: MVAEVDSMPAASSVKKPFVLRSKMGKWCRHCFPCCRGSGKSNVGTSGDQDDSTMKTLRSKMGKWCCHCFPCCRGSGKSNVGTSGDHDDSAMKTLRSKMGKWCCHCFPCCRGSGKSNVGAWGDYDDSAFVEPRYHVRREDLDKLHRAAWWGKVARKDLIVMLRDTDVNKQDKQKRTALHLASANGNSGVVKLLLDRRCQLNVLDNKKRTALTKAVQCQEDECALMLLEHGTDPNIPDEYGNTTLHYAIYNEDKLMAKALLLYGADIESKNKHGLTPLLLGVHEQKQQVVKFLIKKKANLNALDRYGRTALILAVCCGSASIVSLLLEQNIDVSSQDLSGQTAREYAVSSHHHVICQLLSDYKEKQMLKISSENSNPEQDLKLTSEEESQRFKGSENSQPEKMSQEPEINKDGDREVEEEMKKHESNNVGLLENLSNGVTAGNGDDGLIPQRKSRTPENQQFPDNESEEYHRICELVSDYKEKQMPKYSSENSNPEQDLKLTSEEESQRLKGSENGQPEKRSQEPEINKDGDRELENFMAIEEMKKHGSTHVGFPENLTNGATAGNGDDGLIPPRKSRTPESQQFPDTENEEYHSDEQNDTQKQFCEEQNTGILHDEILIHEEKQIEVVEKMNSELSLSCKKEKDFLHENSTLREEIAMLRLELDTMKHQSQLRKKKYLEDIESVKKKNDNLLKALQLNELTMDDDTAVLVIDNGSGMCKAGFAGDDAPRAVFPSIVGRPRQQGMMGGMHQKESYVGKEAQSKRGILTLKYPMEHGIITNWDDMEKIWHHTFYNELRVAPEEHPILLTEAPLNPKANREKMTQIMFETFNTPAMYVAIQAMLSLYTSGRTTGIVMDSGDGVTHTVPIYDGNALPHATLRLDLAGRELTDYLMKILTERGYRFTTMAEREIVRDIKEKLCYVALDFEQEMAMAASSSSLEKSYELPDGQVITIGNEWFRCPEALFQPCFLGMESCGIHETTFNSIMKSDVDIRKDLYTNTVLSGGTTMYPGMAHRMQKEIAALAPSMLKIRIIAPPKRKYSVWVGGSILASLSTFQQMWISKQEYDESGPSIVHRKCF

pictilisib = compound: CS(=O)(=O)N1CCN(Cc2cc3nc(-c4cccc5[nH]ncc45)nc(N4CCOCC4)c3s2)CC1 [pictilisib]
Method in brief: as §1

crizotinib = compound: C[C@@H](Oc1cc(-c2cnn(C3CCNCC3)c2)cnc1N)c1c(Cl)ccc(F)c1Cl [crizotinib]
Method in brief: as §1

[1] = compound: C[C@H](C1=CC=C(C=C1)C(=O)NC2=C3C=CNC3=NC=C2)N
Method in brief: as §1

duvelisib = compound: C[C@H](Nc1ncnc2nc[nH]c12)c1cc2cccc(Cl)c2c(=O)n1-c1ccccc1 [duvelisib]
Method in brief: as §1

gandotinib = compound: Cc1cc(Nc2cc(CN3CCOCC3)c3nc(C)c(Cc4ccc(Cl)cc4F)n3n2)n[nH]1 [gandotinib]
Method in brief: as §1

tozasertib = compound: Cc1cc(Nc2cc(N3CCN(C)CC3)nc(Sc3ccc(NC(=O)C4CC4)cc3)n2)n[nH]1 [tozasertib]
Method in brief: as §1

doramapimod = compound: Cc1ccc(-n2nc(C(C)(C)C)cc2NC(=O)Nc2ccc(OCCN3CCOCC3)c3ccccc23)cc1 [doramapimod]
Method in brief: as §1

bafetinib = compound: Cc1ccc(NC(=O)c2ccc(CN3CC[C@H](N(C)C)C3)c(C(F)(F)F)c2)cc1Nc1nccc(-c2cncnc2)n1 [bafetinib]
Method in brief: as §1

[2] = compound: Cc1cccc(CC(=O)N2CCc3c2ccc(-c2cn(C)c4ncnc(N)c24)c3F)n1
Method in brief: as §1

Measured: log2 fold change

PNISR (UniProt Q8TF01)
inactive: lapatinib 0.01 | pictilisib -0.023 | crizotinib 0.037 | [1] -0.066 | duvelisib -0.032 | gandotinib 0.053 | tozasertib 0.006 | doramapimod -0.003 | bafetinib -0.038 | [2] 0.019

POLR3A (UniProt O14802)
inactive: lapatinib -0.024 | pictilisib -0.01 | crizotinib -0.002 | [1] -0.081 | duvelisib 0.015 | gandotinib 0.005 | tozasertib 0.006 | doramapimod -0.007 | bafetinib -0.024 | [2] 0.068

POLR2F (UniProt P61218)
inactive: lapatinib 0.036 | pictilisib -0.062 | crizotinib -0.024 | duvelisib -0.018 | gandotinib -0.166 | tozasertib 0.156 | doramapimod 0.025 | bafetinib -0.076 | [2] -0.189
active: [1] 1.12

POLD3 (UniProt Q15054)
inactive: lapatinib 0.03 | pictilisib -0.046 | crizotinib -0.056 | [1] 0.022 | duvelisib -0.033 | gandotinib -0.079 | tozasertib 0.021 | doramapimod 0.001 | bafetinib -0.031 | [2] -0.038

POLR2M (UniProt P0CAP2)
inactive: lapatinib -0.034 | pictilisib -0.055 | crizotinib 0.016 | [1] -0.031 | duvelisib 0.015 | gandotinib 0.02 | tozasertib 0.185 | doramapimod 0.009 | bafetinib -0.011 | [2] 0.041

POLDIP2 (UniProt Q9Y2S7)
inactive: lapatinib 0.01 | pictilisib -0.081 | crizotinib -0.013 | [1] -0.001 | duvelisib -0.001 | gandotinib -0.023 | tozasertib 0.025 | doramapimod -0.014 | bafetinib -0.02 | [2] 0.007

Retrieved one by one from above, 2 records:
PNISR (UniProt Q8TF01)
inactive: lapatinib 0.01 | pictilisib -0.023 | crizotinib 0.037 | [1] -0.066 | duvelisib -0.032 | gandotinib 0.053 | tozasertib 0.006 | doramapimod -0.003 | bafetinib -0.038 | [2] 0.019

POLR3A (UniProt O14802)
inactive: lapatinib -0.024 | pictilisib -0.01 | crizotinib -0.002 | [1] -0.081 | duvelisib 0.015 | gandotinib 0.005 | tozasertib 0.006 | doramapimod -0.007 | bafetinib -0.024 | [2] 0.068

The results go on:

PPAT (UniProt Q06203)
inactive: lapatinib 0.013 | pictilisib -0.01 | crizotinib 0.011 | [1] 0.138 | duvelisib -0.006 | gandotinib -0.055 | tozasertib 0.003 | doramapimod 0.002 | bafetinib 0.052 | [2] -0.116

PLK1 (UniProt P53350)
inactive: lapatinib -0.024 | pictilisib 0.013 | crizotinib -0.179 | [1] 0.168 | duvelisib 0.043 | gandotinib -0.088 | tozasertib 0.003 | doramapimod 0.03 | bafetinib -0.019 | [2] -0.055

POLRMT (UniProt O00411)
inactive: lapatinib -0.031 | pictilisib -0.136 | crizotinib -0.027 | [1] 0.017 | duvelisib -0.006 | gandotinib -0.157 | tozasertib 0.06 | doramapimod -0.04 | bafetinib -0.049 | [2] 0.09

PNPLA6 (UniProt Q8IY17)
inactive: lapatinib 0.088 | pictilisib -0.139 | crizotinib -0.198 | [1] -0.01 | duvelisib 0.042 | gandotinib 0.042 | tozasertib 0.025 | doramapimod 0.054 | bafetinib -0.089 | [2] 0.078

POMGNT1 isoform 2 (UniProt Q8WZA1)
inactive: lapatinib -0.02 | pictilisib 0.065 | crizotinib 0.009 | [1] -0.13 | duvelisib -0.151 | gandotinib 0.092 | tozasertib 0.06 | doramapimod 0.005 | bafetinib -0.231 | [2] 0.11

PNP (UniProt P00491)
inactive: lapatinib 0.018 | pictilisib 0.011 | crizotinib 0.042 | [1] -0.011 | duvelisib 0.012 | gandotinib 0.013 | tozasertib -0.031 | doramapimod 0.005 | bafetinib 0.068 | [2] -0.015

PLPBP (UniProt O94903)
inactive: lapatinib 0.026 | pictilisib -0.014 | crizotinib -0.068 | [1] 0.002 | duvelisib -0.028 | gandotinib -0.015 | tozasertib 0.013 | doramapimod 0.017 | bafetinib 0.015 | [2] 0.038

POLE4 (UniProt Q9NR33)
inactive: lapatinib -0.013 | pictilisib -0.071 | crizotinib 0.097 | [1] -0.001 | duvelisib 0.005 | gandotinib 0.049 | tozasertib 0.029 | doramapimod 0.05 | bafetinib -0.161 | [2] -0.006

POGLUT1 (UniProt Q8NBL1)
inactive: lapatinib 0.01 | pictilisib -0.034 | crizotinib 0.049 | [1] -0.016 | duvelisib -0.041 | gandotinib -0.015 | tozasertib 0.078 | doramapimod -0.022 | bafetinib -0.01 | [2] 0.004

POLA1 (UniProt P09884)
inactive: lapatinib -0.022 | pictilisib -0.044 | crizotinib -0.03 | [1] -0.011 | duvelisib 0.009 | gandotinib -0.016 | tozasertib 0.003 | doramapimod 0.01 | bafetinib -0.057 | [2] 0.004

PLG (UniProt P00747)
inactive: lapatinib -0.049 | pictilisib -0.033 | crizotinib 0.055 | [1] -0.027 | duvelisib 0.252 | gandotinib 0.039 | tozasertib -0.043 | doramapimod -0.036 | bafetinib -0.028 | [2] 0.05

POLR1C (UniProt O15160)
inactive: lapatinib -0.027 | pictilisib -0.018 | crizotinib -0.014 | [1] 0.045 | duvelisib -0.01 | gandotinib -0.05 | tozasertib 0.009 | doramapimod -0.018 | bafetinib -0.081 | [2] -0.018

POM121C (UniProt A8CG34)
inactive: lapatinib 0.164 | pictilisib 0.19 | [1] 0.007 | gandotinib 0.051 | bafetinib 0.135 | [2] -0.091

POLE2 (UniProt P56282)
inactive: lapatinib 0.151 | pictilisib -0.124 | crizotinib -0.047 | [1] -0.111 | duvelisib -0.001 | gandotinib 0.044 | tozasertib 0.025 | doramapimod 0.016 | bafetinib -0.008 | [2] 0

PMS2CL (UniProt Q68D20)
inactive: lapatinib 0.066 | pictilisib 0.013 | crizotinib 0.015 | doramapimod 0.013 | bafetinib -0.204

POLR2J (UniProt P52435)
inactive: lapatinib 0.017 | pictilisib 0.011 | crizotinib -0.061 | duvelisib 0.063 | tozasertib 0.056 | doramapimod 0.045 | bafetinib -0.13

PNO1 (UniProt Q9NRX1)
inactive: lapatinib 0.009 | pictilisib -0.009 | crizotinib 0.013 | [1] 0.007 | duvelisib 0.012 | gandotinib -0.055 | tozasertib 0 | doramapimod -0.08 | bafetinib -0.039 | [2] 0.006

POLR3C (UniProt Q9BUI4)
inactive: lapatinib -0.028 | pictilisib -0.005 | crizotinib 0.005 | [1] -0.032 | duvelisib -0.042 | gandotinib -0.017 | tozasertib -0.009 | doramapimod 0.053 | bafetinib -0.02 | [2] -0.006

POLR2G (UniProt P62487)
inactive: lapatinib -0.001 | pictilisib -0.048 | crizotinib 0.016 | [1] -0.04 | duvelisib 0.03 | gandotinib -0.002 | tozasertib -0.04 | doramapimod -0.011 | bafetinib 0.004 | [2] -0.006

PLXNA1 (UniProt Q9UIW2)
inactive: lapatinib -0.014 | pictilisib -0.019 | crizotinib 0.02 | [1] -0.024 | duvelisib 0.034 | gandotinib 0.003 | tozasertib -0.018 | doramapimod -0.009 | bafetinib -0.021 | [2] 0.056

PNKD (UniProt Q8N490)
inactive: lapatinib 0.029 | pictilisib -0.093 | crizotinib -0.022 | [1] -0.076 | duvelisib 0.067 | gandotinib -0.001 | tozasertib -0.174 | doramapimod 0.017 | bafetinib 0.094 | [2] -0.045

POTEI (UniProt P0CG38)
inactive: lapatinib -0.016 | pictilisib -0.022 | crizotinib -0.037 | [1] 0.01 | duvelisib -0.03 | gandotinib 0.053 | tozasertib -0.015 | doramapimod 0.073 | bafetinib -0.056 | [2] -0.09

From the supplement of paper PMC10849652
